Results are given in words; binding and its absence hold for the method and conditions named. In cells and extracts the contact can be indirect. Some results given as binding are weak or reduced against the parent protein; the word gives no strength.
Target: Active GTP-bound Cdc42 from A549 cell lysate (human) (UniProt P60953)
Experiment: pull-down from A549 lysate on glutathione beads, immunoblot with anti-Cdc42

The chains behind the UniProt entries cited, without tags or fusion partners. Residues count along the entry.
UniProt P60953, residues 1-188: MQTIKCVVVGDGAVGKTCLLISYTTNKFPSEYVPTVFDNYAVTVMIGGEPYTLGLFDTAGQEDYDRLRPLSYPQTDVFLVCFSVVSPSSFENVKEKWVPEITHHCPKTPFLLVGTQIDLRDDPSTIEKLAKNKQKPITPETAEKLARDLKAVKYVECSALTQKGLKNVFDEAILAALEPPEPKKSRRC
UniProt Q13153, residues 67-150: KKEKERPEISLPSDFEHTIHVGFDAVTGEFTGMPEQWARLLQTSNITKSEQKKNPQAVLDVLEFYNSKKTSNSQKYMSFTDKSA

Q: “GST-PBD fusion protein of PAK1 immobilized on glutathione beads (from UniProt Q13153 67-150)” was tested. Which binding did it give?
A: binds

Reference: patent US20110318429A1
